The target of this experiment is T1, heterogeneous nuclear ribonucleoprotein L (mouse (endogenous in C2C12)) (UniProt Q8R081).
T1 sequence: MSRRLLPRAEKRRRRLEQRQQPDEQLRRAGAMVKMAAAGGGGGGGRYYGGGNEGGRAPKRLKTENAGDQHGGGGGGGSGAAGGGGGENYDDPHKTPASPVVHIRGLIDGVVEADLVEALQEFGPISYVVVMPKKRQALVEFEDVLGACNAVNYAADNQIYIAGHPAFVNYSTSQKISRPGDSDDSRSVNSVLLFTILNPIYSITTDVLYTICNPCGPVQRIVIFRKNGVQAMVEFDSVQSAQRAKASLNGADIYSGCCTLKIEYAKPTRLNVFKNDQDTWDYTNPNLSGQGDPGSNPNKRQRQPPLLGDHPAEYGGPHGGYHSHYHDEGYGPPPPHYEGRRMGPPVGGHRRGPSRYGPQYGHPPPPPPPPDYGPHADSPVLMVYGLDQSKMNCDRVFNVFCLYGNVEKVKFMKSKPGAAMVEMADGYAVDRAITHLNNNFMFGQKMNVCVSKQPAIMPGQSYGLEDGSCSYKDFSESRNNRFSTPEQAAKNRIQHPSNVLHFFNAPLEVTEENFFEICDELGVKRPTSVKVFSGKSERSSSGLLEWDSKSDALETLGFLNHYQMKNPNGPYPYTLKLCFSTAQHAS
Kind of experiment: co-IP; nuclear lysates of C2C12 cells (DM D2), digested with DNase I; IP with antibodies against hnRNPL or CCNT1 (IgG control) overnight at 4 °C, Protein-G magnetic beads; washes in 20 mM HEPES pH 7.9, 0.2 M NaCl, 0.3% NP-40; western blot; also done in seRNA-1 knockdown cells (binding not affected). In general terms: In western blotting, separated proteins are transferred to a membrane and probed.

Amino acid sequences for entries named in this document (tags omitted).
UniProt Q9QWV9: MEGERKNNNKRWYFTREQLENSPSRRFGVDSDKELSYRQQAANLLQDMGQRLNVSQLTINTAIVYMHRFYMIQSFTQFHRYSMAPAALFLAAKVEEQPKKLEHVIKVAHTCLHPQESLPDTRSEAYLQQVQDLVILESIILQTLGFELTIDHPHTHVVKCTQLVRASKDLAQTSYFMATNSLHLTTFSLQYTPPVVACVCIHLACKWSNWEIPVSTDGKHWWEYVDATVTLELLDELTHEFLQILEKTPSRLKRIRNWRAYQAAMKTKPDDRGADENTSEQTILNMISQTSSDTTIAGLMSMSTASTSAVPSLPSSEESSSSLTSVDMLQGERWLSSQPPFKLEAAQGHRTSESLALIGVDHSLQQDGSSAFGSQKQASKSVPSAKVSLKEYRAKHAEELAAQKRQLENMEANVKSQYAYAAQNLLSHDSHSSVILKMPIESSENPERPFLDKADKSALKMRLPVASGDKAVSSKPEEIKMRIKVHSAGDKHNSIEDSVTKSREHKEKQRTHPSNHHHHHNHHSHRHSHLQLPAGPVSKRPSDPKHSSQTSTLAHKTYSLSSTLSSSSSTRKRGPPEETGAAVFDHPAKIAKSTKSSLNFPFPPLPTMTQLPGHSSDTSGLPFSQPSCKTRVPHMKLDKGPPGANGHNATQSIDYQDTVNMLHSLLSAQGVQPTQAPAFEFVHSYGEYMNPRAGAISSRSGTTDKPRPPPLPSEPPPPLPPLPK
UniProt Q99J95: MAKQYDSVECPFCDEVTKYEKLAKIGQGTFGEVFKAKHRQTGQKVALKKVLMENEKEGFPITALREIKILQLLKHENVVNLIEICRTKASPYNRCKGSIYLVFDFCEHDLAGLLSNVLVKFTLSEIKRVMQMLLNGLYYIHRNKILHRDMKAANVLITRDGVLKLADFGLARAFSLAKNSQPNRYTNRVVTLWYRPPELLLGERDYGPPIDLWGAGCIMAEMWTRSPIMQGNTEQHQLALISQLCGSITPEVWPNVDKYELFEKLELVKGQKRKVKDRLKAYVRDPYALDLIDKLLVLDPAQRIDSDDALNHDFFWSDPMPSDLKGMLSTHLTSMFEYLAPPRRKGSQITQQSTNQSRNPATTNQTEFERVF

No constants are given. Whether binding was seen depends on the method and setting. In cells and extracts the contact can be indirect. Some results given as binding are weak or reduced against the parent protein; the word gives no strength.

In the case of CCNT1 (from UniProt Q9QWV9 1-724), the binding entry is reported as “binds”. As to CDK9 (from UniProt Q99J95 1-372), the binding result is listed as “binds”.

For the origin of these results see PMC6923398.
